The list shows a part of the results.
Key:
Test in all cases: log2 fold change, soluble protein after heating vs DMSO (PISA); higher = thermal stabilisation; K562 lysate, 10 uM; active = over 0.2 and 3.5 SD of the protein, either way, in both replicates (recomputed)
[1] = compound: NCC(=O)Nc1ccc(-n2nc(C(F)(F)F)cc2-c2ccc3c(ccc4ccccc43)c2)cc1
How it was run: (§1)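 Pellets of K562 cells were dounce-homogenised in PBS pH 7.4 with 1 mM MgCl2, and the crude extract was held at 1 mg/mL protein for a 30 min treatment with 10 μM compound. Aliquots were heated for 3 min over 48°C-58°C and pooled before NP-40 was added to 0.5% at 4°C. The supernatant from 21,000xg for 90 min was quantified by TMTpro 16plex LC-MS/MS with channel sums equalised. Values are reported from duplicates as log-two fold change in thermal stability relative to solvent controls.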

The chains behind the UniProt entries cited, without tags or fusion partners. Where a name states a change or a piece, a line headed by the entry shows the natural chain unless it says otherwise.
UniProt Q8N0Z3: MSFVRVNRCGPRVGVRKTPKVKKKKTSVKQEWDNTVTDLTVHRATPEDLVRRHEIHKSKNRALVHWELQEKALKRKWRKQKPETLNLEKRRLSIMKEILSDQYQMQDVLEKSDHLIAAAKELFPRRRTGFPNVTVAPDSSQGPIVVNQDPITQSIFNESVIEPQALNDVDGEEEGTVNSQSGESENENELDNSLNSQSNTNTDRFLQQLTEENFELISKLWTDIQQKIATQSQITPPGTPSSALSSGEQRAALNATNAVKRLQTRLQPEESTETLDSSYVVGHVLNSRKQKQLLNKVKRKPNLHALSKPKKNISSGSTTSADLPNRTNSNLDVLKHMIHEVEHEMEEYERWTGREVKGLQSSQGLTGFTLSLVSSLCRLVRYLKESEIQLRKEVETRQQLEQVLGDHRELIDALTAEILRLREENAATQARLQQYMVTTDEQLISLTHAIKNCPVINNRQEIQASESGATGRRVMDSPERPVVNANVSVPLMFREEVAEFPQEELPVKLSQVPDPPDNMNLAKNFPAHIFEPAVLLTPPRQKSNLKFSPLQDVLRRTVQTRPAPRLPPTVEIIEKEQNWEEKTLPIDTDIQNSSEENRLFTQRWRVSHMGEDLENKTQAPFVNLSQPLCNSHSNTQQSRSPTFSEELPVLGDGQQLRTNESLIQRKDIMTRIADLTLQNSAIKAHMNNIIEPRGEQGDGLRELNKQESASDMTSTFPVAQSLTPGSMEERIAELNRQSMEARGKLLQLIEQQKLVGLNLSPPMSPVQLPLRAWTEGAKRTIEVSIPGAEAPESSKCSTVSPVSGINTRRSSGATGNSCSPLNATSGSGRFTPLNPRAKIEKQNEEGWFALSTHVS
UniProt Q01130: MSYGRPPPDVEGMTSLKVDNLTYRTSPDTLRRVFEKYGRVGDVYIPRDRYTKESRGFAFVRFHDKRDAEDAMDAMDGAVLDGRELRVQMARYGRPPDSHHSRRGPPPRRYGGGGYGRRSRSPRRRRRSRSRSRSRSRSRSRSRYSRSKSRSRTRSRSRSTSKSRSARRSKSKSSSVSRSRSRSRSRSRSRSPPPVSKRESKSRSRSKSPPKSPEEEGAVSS
UniProt P40763, whole entry, looked up: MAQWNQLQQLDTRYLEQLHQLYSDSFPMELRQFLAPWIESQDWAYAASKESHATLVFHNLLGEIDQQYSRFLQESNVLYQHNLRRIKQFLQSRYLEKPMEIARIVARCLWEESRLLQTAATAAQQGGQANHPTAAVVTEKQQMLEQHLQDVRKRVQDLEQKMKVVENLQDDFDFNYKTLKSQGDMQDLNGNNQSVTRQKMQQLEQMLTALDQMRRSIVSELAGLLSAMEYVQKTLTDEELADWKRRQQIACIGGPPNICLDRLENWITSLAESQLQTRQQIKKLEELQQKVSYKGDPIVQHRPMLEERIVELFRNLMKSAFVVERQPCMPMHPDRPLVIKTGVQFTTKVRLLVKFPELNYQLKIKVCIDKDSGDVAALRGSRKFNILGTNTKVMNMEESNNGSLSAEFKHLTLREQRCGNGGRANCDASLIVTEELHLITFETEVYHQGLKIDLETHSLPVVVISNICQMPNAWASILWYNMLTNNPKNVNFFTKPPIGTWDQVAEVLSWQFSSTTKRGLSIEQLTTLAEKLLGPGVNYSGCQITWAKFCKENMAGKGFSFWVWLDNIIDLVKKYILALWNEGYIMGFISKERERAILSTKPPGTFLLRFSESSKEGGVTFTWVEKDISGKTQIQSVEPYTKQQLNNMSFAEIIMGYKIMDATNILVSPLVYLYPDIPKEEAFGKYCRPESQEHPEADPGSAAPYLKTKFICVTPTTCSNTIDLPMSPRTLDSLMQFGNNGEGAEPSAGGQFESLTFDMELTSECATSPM
UniProt Q5T280: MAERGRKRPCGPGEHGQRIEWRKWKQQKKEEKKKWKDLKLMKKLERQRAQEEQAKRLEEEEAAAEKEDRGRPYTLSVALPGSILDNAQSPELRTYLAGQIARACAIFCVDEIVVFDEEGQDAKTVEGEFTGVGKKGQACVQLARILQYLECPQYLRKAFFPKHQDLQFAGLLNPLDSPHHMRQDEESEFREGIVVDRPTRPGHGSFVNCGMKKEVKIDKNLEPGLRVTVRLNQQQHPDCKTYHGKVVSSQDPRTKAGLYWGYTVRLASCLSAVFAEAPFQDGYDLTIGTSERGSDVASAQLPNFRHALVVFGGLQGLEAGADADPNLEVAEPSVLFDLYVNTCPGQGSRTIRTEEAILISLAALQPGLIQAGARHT
UniProt Q8N3U4: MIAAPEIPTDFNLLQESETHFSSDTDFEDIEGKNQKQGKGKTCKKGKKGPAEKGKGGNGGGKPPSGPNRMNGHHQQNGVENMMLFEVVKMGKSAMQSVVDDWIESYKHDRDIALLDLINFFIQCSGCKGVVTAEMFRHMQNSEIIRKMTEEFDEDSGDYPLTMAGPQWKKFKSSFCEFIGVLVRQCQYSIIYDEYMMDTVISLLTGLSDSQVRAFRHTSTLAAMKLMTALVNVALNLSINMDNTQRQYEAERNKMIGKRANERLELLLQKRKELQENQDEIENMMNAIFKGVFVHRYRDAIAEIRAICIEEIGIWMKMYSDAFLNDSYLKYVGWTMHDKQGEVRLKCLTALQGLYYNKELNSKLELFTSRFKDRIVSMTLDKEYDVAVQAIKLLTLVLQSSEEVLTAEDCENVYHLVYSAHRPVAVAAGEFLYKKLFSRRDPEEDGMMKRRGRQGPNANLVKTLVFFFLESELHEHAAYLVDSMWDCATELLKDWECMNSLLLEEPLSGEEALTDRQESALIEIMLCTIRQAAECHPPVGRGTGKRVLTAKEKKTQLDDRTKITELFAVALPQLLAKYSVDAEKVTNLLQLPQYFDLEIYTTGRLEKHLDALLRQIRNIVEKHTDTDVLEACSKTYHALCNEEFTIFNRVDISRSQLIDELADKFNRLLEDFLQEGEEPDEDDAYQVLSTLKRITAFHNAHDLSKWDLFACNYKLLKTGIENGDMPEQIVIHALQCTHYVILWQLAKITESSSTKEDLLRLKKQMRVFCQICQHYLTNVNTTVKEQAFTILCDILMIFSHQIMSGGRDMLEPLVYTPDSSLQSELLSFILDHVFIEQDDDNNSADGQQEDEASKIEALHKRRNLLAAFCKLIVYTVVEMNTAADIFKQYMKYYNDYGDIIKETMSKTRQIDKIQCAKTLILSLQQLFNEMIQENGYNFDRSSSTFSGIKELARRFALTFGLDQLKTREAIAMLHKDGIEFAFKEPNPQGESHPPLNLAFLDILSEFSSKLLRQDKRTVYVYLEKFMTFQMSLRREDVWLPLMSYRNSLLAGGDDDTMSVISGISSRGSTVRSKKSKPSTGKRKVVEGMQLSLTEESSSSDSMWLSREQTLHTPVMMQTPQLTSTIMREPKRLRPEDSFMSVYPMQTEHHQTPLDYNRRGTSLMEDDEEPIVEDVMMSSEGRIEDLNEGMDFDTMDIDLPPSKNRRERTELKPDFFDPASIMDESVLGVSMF
UniProt Q9UH36: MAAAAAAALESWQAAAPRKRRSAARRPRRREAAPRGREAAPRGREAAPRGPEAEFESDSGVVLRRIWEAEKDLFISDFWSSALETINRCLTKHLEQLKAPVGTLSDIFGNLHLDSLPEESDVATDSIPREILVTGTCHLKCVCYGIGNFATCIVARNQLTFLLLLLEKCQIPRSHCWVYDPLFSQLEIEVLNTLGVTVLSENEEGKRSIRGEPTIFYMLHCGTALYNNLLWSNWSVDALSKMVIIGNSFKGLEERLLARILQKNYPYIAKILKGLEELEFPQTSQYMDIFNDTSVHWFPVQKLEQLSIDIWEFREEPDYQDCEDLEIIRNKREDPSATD
UniProt Q11201: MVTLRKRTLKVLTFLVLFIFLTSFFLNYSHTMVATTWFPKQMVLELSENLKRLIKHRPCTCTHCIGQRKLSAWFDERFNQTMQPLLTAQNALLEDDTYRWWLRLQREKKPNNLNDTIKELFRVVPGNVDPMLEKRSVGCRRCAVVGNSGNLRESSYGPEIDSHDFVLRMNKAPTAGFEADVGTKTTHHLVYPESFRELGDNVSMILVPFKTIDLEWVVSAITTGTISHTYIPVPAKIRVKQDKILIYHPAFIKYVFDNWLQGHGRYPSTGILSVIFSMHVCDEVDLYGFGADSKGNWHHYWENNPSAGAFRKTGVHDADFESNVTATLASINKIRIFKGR
UniProt P36956: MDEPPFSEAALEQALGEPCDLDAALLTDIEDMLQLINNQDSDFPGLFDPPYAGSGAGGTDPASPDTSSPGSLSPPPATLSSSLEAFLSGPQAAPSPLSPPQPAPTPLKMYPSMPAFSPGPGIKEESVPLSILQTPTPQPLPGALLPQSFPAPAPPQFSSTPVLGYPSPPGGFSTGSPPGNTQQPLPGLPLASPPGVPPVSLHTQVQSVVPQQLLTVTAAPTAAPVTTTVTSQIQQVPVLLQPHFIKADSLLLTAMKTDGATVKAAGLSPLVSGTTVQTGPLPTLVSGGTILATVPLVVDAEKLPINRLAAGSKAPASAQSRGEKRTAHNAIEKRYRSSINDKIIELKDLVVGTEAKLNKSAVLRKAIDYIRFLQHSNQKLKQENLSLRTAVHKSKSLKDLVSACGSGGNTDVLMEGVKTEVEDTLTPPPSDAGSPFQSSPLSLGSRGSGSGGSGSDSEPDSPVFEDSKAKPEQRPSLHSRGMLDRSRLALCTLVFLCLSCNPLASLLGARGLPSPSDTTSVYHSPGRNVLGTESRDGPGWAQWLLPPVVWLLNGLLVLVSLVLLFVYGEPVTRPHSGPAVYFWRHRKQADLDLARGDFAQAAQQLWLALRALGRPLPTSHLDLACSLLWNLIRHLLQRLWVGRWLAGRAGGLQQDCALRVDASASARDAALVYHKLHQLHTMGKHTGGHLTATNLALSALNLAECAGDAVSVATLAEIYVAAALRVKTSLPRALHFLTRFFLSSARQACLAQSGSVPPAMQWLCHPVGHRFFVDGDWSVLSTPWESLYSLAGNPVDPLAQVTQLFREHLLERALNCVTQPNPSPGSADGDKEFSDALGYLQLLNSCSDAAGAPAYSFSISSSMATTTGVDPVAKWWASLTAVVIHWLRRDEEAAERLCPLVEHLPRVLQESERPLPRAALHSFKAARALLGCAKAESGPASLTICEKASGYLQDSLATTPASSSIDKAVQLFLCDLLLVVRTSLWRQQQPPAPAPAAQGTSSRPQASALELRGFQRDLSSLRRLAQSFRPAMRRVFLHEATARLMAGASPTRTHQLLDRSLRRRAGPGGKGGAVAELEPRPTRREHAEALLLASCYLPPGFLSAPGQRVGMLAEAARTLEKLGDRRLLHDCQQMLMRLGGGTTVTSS
UniProt Q9C0H9: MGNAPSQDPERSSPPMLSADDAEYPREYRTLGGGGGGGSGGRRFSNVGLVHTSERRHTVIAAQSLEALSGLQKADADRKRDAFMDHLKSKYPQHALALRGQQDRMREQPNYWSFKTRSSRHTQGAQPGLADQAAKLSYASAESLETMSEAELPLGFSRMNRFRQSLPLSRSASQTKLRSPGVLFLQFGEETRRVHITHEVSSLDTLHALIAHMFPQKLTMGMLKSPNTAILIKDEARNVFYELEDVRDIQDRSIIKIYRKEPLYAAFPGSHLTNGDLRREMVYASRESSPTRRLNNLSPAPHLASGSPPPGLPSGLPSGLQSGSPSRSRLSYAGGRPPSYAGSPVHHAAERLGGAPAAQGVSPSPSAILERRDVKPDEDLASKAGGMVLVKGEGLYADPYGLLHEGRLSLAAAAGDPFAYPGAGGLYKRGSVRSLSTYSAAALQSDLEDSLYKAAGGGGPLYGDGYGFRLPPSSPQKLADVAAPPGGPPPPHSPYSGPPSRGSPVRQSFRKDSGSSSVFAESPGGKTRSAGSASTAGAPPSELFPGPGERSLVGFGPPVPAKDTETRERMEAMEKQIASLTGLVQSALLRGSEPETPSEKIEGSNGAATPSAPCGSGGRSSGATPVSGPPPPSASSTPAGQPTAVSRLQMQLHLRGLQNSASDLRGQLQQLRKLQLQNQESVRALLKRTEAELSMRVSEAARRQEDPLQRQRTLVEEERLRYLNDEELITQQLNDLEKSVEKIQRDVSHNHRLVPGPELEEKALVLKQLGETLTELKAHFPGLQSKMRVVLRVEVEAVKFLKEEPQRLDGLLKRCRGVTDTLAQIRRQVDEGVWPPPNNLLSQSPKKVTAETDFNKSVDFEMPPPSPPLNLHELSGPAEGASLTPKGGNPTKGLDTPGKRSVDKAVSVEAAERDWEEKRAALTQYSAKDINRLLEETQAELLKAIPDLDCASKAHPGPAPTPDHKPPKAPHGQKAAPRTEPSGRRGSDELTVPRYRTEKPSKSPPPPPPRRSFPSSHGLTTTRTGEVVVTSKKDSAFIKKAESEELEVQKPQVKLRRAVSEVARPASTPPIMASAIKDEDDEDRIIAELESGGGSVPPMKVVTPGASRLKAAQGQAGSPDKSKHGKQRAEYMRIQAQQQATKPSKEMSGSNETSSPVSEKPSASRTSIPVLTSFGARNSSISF

vorinostat = compound: O=C(CCCCCCC(=O)Nc1ccccc1)NO [vorinostat]
How it was run: as §1

silmitasertib = compound: O=C(O)c1ccc2c(c1)nc(Nc1cccc(Cl)c1)c1ccncc12 [silmitasertib]
How it was run: as §1

[2] = compound: O=C1NC(=O)C(c2cnc3ccccn23)=C1c1cn2c3c(cc(F)cc13)CN(C(=O)N1CCCCC1)CC2
How it was run: as §1

entospletinib = compound: c1cn2cc(-c3ccc4cn[nH]c4c3)nc(Nc3ccc(N4CCOCC4)cc3)c2n1 [entospletinib]
How it was run: as §1

Measured: log2 fold change

SRSF5 (UniProt Q13243)
inactive: [1] 0.029 | vorinostat 0.065 | silmitasertib -0.01 | [2] 0.008 | entospletinib -0.015

SPICE1 (UniProt Q8N0Z3)
inactive: [1] -0.264 | vorinostat -0.27 | silmitasertib 0.298 | entospletinib 0.198

SPATS2L isoform 2 (UniProt Q9NUQ6)
inactive: [1] -0.088 | vorinostat 0.052 | silmitasertib -0.023 | [2] 0.049 | entospletinib 0.067

SRSF2 (UniProt Q01130)
inactive: [1] 0.023 | vorinostat 0.087 | silmitasertib -0.017 | [2] -0.043 | entospletinib -0.055

STIM1 (UniProt Q13586)
inactive: [1] 0.026 | vorinostat 0.126 | silmitasertib -0.01 | [2] 0.018 | entospletinib -0.025

STAT3 isoform 2 (UniProt P40763)
inactive: [1] 0.021 | vorinostat -0.135 | silmitasertib 0.016 | [2] -0.009 | entospletinib 0.033

SPOUT1 (UniProt Q5T280)
inactive: [1] 0.025 | vorinostat -0.195 | silmitasertib 0.051 | entospletinib -0.041

SSU72 (UniProt Q9NP77)
inactive: [1] 0.015 | vorinostat 0.112 | silmitasertib -0.026 | [2] -0.021 | entospletinib -0.014

SPATA33 isoform 2 (UniProt Q96N06)
inactive: [1] -0.149 | entospletinib -0.105

SQOR (UniProt Q9Y6N5)
inactive: vorinostat 0.159 | silmitasertib 0.048 | [2] 0.102 | entospletinib -0.045

STAT1 isoform 2 (UniProt P42224)
inactive: [2] -0.065

STEAP3 isoform 2 (UniProt Q658P3)
inactive: [1] -0.02 | [2] 0.045 | entospletinib -0.005

STAG2 (UniProt Q8N3U4)
inactive: vorinostat -0.036 | silmitasertib -0.134 | [2] -0.102 | entospletinib 0.036

SS18L1 (UniProt O75177)
inactive: vorinostat -0.065 | silmitasertib -0.013 | [2] 0.007

STAG1 (UniProt Q8WVM7)
inactive: vorinostat 0.087 | silmitasertib 0.107 | [2] -0.001 | entospletinib 0.023

SPATA7 (UniProt Q9P0W8)
inactive: [1] 0.296 | vorinostat 0.21 | silmitasertib -0.091 | entospletinib 0.047

SRRD (UniProt Q9UH36)
inactive: [2] -0.001

SPRYD3 (UniProt Q8NCJ5)
inactive: vorinostat -0.428 | silmitasertib 0.134 | [2] 0.061

SRGAP2, A0A075B7B5
inactive: [2] 0.03

ST3GAL1 (UniProt Q11201)
inactive: [2] -0.169

STARD8 isoform 2 (UniProt Q92502)
inactive: [2] -0.065 | entospletinib 0.064

SSBP4 (UniProt Q9BWG4)
inactive: [1] -0.045 | [2] 0.024 | entospletinib -0.057

Reprinted at random: three records from the list.
SPRYD3 (UniProt Q8NCJ5)
inactive: vorinostat -0.428 | silmitasertib 0.134 | [2] 0.061

SSBP4 (UniProt Q9BWG4)
inactive: [1] -0.045 | [2] 0.024 | entospletinib -0.057

SRRD (UniProt Q9UH36)
inactive: [2] -0.001

(list continues)

SPTAN1 isoform 3 (UniProt Q13813)
inactive: [1] -0.036 | [2] -0.074 | entospletinib -0.011

SREBF1 isoform 4 (UniProt P36956)
inactive: vorinostat 0.099 | silmitasertib 0.027 | [2] 0.06

STAB1 (UniProt Q9NY15)
inactive: vorinostat 0.442 | silmitasertib -0.002 | [2] 0.032

SRP14 (UniProt H0YLW0)
inactive: vorinostat 0.191 | silmitasertib -0.107 | [2] 0.37

SPRED1 (UniProt Q7Z699)
inactive: vorinostat 0.132 | silmitasertib -0.116 | entospletinib 0.026

SSX2IP (UniProt Q9Y2D8)
inactive: [1] 0.006 | entospletinib 0.079

SPTY2D1 (UniProt Q68D10)
inactive: vorinostat -0.007 | silmitasertib -0.007 | [2] 0.007

SPRY2 (UniProt O43597)
inactive: vorinostat 0.158 | silmitasertib -0.238

SRCIN1 (UniProt Q9C0H9)
inactive: vorinostat -0.211 | silmitasertib -0.062 | entospletinib -0.055

SPC24 (UniProt K7ESQ2)
inactive: [2] 0.123 | entospletinib -0.002

STAP1 (UniProt Q9ULZ2)
inactive: vorinostat -0.299 | silmitasertib 0.142

From the supplement of paper PMC10849652
